Publication PMC4227788, “Architecture and ssDNA interaction of the Timeless-Tipin-RPA complex” (Nucleic Acids Research, 2014)
These are yes or no findings as the source states them, for the method shown. Some binding calls cover weakened binding; strength is not graded here.

By UniProt entry, the sequences of proteins in these tests, tags left out. Residues count along the entry.
UniProt Q8VEE4, residues 190-623: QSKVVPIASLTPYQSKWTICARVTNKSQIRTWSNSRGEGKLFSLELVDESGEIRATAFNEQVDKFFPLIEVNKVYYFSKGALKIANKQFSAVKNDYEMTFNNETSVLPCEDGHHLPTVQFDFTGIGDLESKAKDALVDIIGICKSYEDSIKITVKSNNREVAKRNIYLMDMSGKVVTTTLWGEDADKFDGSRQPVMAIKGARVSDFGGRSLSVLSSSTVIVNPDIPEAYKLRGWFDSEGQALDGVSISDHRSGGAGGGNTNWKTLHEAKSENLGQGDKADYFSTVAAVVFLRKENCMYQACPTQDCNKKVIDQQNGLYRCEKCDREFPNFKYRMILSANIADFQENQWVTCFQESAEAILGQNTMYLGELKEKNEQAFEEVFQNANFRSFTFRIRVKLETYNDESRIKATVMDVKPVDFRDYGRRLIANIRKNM
UniProt Q62193, residues 43-270: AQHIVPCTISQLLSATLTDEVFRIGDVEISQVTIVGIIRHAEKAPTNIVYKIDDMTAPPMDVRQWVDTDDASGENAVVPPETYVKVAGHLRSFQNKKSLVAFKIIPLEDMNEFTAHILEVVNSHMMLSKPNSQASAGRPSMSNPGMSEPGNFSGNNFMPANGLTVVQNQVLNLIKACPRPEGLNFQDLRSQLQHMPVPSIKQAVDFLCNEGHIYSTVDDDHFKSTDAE
UniProt Q9CQ71: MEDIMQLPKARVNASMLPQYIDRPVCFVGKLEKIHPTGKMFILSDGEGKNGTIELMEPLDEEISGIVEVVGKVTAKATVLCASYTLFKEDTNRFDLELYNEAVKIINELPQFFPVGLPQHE

How the values were obtained:
[1] = target: RPA70 (DBD-A, -B, -C, residues 190-623) (mouse) (UniProt Q8VEE4); assay: SEC; RPA70/32/14 co-expressed in E. coli and co-purified (Ni-NTA, Q-sepharose, SEC; 20 mM Hepes pH 7.0, 125 mM NaCl, 2 mM DTT, 0.01 mM zinc acetate); single peak
[2] = target: RPA32 (DBD-D and WH domain, residues 43-270) (mouse) (UniProt Q62193); assay: co-purification (Ni-NTA, Q-sepharose, SEC); RPA32/14 co-expressed in E. coli and co-purified; eluted from Q-sepharose as a single peak

Substance	binding [1]	binding [2]
RPA14 (residues 1-121) (from UniProt Q9CQ71 1-121)	binds	binds
RPA32 (DBD-D and WH domain, residues 43-270) (from UniProt Q62193 43-270) (domain or fragment)	binds	
